Assays:
[1] = Extraction efficiency of NAD+ and NMN from filter paper (with vs without filter paper); parameters: species or system human; conditions: for Extraction efficiency (mean): concentration with filter paper / without filter paper
[2] = Optimization study of extraction buffer: NAD+ and NMN quantified by LC-MS/MS in blood or blood cells; parameters: species or system rat; conditions: for Extraction efficiency, Blood cells, Evaluation / Concentration, Blood cells, Mean / Extraction efficiency, Blood cells, Mean: rat blood cells; for Extraction efficiency, Blood cells, Mean / Extraction efficiency, Blood, Mean: relative to 100:0 as 100%; for Extraction efficiency, Blood, Evaluation / Concentration, Blood, Mean / Extraction efficiency, Blood, Mean: rat whole blood
[3] = Room temperature storage stability of NAD+ and NMN in blood spotted on filter paper (DBS, LC-MS/MS); format: physicochemical, human
Method: A filter paper, to which blood derived from a test subject is added (i.e., corresponding to a filter paper in Step 1 of the present invention), was searched for the optimal one for quantifying NAD+ and NMN when the filter paper with added blood derived from the test subject is stored at room temperature for a certain period of time.
A part of the blood spotted-filter paper prepared in Example 2 was sealed in a moisture absorption standard pouch (Moisture absorption-kun (registered trademark)/Maruto Sangyo Co., Ltd.) and then stored at room temperature. After storage at room temperature for 2 days, 1 week (7 days), or 2 weeks (15 days), the blood-spotted areas were cut out and collected in a 2 mL microtube. After performing the same treatment as in Example 2, measurement by LC-MS/MS was performed under the same conditions as in Example 2.

[4] = Storage stability of extract solution (frozen storage 71 days); format: physicochemical, human
Source text: A filter paper with added blood derived from a test subject is brought into contact with a solvent (extraction buffer) to obtain the solvent after contact (hereinafter may be abbreviated as extract solution), which storage stability was investigated.
A part of the blood extract solution (100% water) from the filter paper obtained and stored in Example 2 (15 days of chilled storage) and a part of the solution for LC-MS/MS measurement (water containing 67% acetonitrile) were frozen-stored. After 71 days of frozen storage, the supernatant of the former obtained by adding twice the amount of acetonitrile thereto, mixing and centrifuging (24,250×g, 10 minutes, 4° C.), and the supernatant of the latter obtained by centrifuging (24,250×g, 10 minutes, 4° C.) the solution after storage were both measured by LC-MS/MS under the same conditions as in Example 2.

[5] = extraction buffer water:acetonitrile 0:100
[6] = extraction buffer water:acetonitrile 20:80
[7] = extraction buffer water:acetonitrile 40:60
[8] = extraction buffer water:acetonitrile 60:40 (NAD+ line prints 40:40)
[9] = extraction buffer water:acetonitrile 80:20
[10] = extraction buffer water:acetonitrile 100:0

Question: What does the source list for `NC(=O)c1ccc[n+]([C@@H]2O[C@H](COP(=O)([O-])OP(=O)(O)OC[C@H]3O[C@@H](n4cnc5c(N)ncnc54)[C@H](O)[C@@H]3O)[C@@H](O)[C@H]2O)c1` [NAD+, nicotinamide adenine dinucleotide]?
Answer: Extraction efficiency, Evaluation ([1]; 903 card): Average (Average (≥75%)); Extraction efficiency (mean) ([1]; 903 card): 77.2%; Extraction efficiency, Evaluation ([1]; DMPK-A card): Excellent: (Excellent (≥90%)); Extraction efficiency (mean) ([1]; DMPK-A card): 95.1%; Extraction efficiency, Evaluation ([1]; DMPK-B card): Excellent: (Excellent (≥90%)); Extraction efficiency (mean) ([1]; DMPK-B card): 90.9%; Extraction efficiency, Evaluation ([1]; DMPK-C card): Poor (Poor (<75%)); Extraction efficiency (mean) ([1]; DMPK-C card): 72.9%; Concentration (mean) ([1]; human blood on 903 card, no storage): 24.47 µM; Concentration (mean) ([1]; human blood on DMPK-A card, no storage): 29.65 µM; Concentration (mean) ([1]; human blood on DMPK-B card, no storage): 28.75 µM; Concentration (mean) ([1]; human blood on DMPK-C card, no storage): 22.44 µM; Concentration (mean) ([1]; human blood, filter paper: none (Table 16)): 31.81 µM; Extraction efficiency, Blood cells, Evaluation [2, 5]: Poor (Poor (<40%)); Concentration, Blood cells, Mean [2, 6]: 31.53 µmol/L; Extraction efficiency, Blood cells, Evaluation [2, 6]: Poor (Poor (<40%)); Extraction efficiency, Blood cells, Mean [2, 6]: 9.1%; Concentration, Blood cells, Mean [2, 7]: 203.81 µmol/L; Extraction efficiency, Blood cells, Evaluation [2, 7]: Average (Average (≥ 40%)); Extraction efficiency, Blood cells, Mean [2, 7]: 55.9%; Concentration, Blood cells, Mean [2, 8]: 212.89 µmol/L; Extraction efficiency, Blood cells, Evaluation [2, 8]: Average (Average (≥ 40%)); Extraction efficiency, Blood cells, Mean [2, 8]: 58.8%; Concentration, Blood cells, Mean [2, 9]: 232.44 µmol/L; Extraction efficiency, Blood cells, Evaluation [2, 9]: Good (Good (≥60%)); Extraction efficiency, Blood cells, Mean [2, 9]: 64.3%; Concentration, Blood cells, Mean [2, 10]: 380.82 µmol/L; Extraction efficiency, Blood cells, Evaluation [2, 10]: Excellent (Excellent (≥80%)); Extraction efficiency, Blood, Evaluation [2, 5]: Poor (Poor (<40%)); Concentration, Blood, Mean [2, 6]: 18.28 µmol/L; Extraction efficiency, Blood, Evaluation [2, 6]: Poor (Poor (<40%)); Extraction efficiency, Blood, Mean [2, 6]: 9.4%; Concentration, Blood, Mean [2, 7]: 124.05 µmol/L; Extraction efficiency, Blood, Evaluation [2, 7]: Good (Good (≥60%)); Extraction efficiency, Blood, Mean [2, 7]: 62.5%; Concentration, Blood, Mean [2, 8]: 141.35 µmol/L; Extraction efficiency, Blood, Evaluation [2, 8]: Good (Good (≥60%)); Extraction efficiency, Blood, Mean [2, 8]: 71.8%; Concentration, Blood, Mean [2, 9]: 135.60 µmol/L; Extraction efficiency, Blood, Evaluation [2, 9]: Good (Good (≥60%)); Extraction efficiency, Blood, Mean [2, 9]: 68.0%; Concentration, Blood, Mean [2, 10]: 200.78 µmol/L; Extraction efficiency, Blood, Evaluation [2, 10]: Excellent (Excellent (≥80%)); Concentration (mean) ([3]; human blood on 903 card, room temperature storage for 2 weeks): 17.15 µM; Concentration (mean) ([3]; human blood on 903 card, room temperature storage for 2 days): 20.63 µM; Concentration (mean) ([3]; human blood on DMPK-A card, room temperature storage for 2 weeks): 17.34 µM; Concentration (mean) ([3]; human blood on DMPK-A card, room temperature storage for 2 days): 21.71 µM; Concentration (mean) ([3]; human blood on DMPK-B card, room temperature storage for 1 week): 26.95 µM; Concentration (mean) ([3]; human blood on DMPK-B card, room temperature storage for 2 weeks): 22.65 µM; Concentration (mean) ([3]; human blood on DMPK-B card, room temperature storage for 2 days): 25.47 µM; Concentration (mean) ([3]; human blood on DMPK-C card, room temperature storage for 2 weeks): 17.02 µM; Concentration (mean) ([3]; human blood on DMPK-C card, room temperature storage for 2 days): 17.23 µM; Concentration (mean) ([3]; human blood, filter paper: none, storage for 0 days (initial value, Table 12)): 31.95 µM; Concentration (mean) ([4]; 903 card chilled 15 days, extract solution 100% water, frozen 71 days): 75.50 µM; Concentration (mean) ([4]; 903 card chilled 15 days, extract solution with twice the amount of acetonitrile added, frozen 71 days): 26.40 µM; Concentration (mean) ([4]; DMPK-A card chilled 15 days, extract solution 100% water, frozen 71 days): 41.44 µM; Concentration (mean) ([4]; DMPK-A card chilled 15 days, extract solution with twice the amount of acetonitrile added, frozen 71 days): 25.37 µM; Concentration (mean) ([4]; DMPK-B card chilled 15 days, extract solution 100% water, frozen 71 days): 26.37 µM; Concentration (mean) ([4]; DMPK-B card chilled 15 days, extract solution with twice the amount of acetonitrile added, frozen 71 days): 28.14 µM; Concentration (mean) ([4]; DMPK-C card chilled 15 days, extract solution 100% water, frozen 71 days): 58.05 µM; Concentration (mean) ([4]; DMPK-C card chilled 15 days, extract solution with twice the amount of acetonitrile added, frozen 71 days): 21.10 µM; Concentration (mean) ([4]; human blood, filter paper: none, storage for 0 days (initial value, Tables 18 and 20)): 28.41 µM
